Results are given in words; binding and its absence hold for the method and conditions named. Some results given as binding are weak or reduced against the parent protein; the word gives no strength.
Tests used:
[1] = molecular target: T1, cytoplasmic domain of Bacillus subtilis anti-sigma RsiW (residues 1-80), oxidized, zinc-free (B. subtilis 168 strain) (UniProt Q45588); experiment: co-purification (IMAC + SEC); SigW co-expressed with Hisx6-thioredoxin-RsiWcyto in E. coli in minimal media without zinc; purified through the His tag of RsiWcyto and by SEC in buffer B (20 mM HEPES pH 7.5, 0.2 M NaCl, 5% glycerol) without reducing agent and zinc
T1 sequence (chain, disulfide bond between C3 and C37): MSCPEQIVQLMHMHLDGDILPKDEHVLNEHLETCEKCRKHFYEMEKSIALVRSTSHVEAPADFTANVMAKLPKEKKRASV

[2] = molecular target: T2, cytoplasmic domain of Bacillus subtilis anti-sigma RsiW (residues 1-80), reduced, zinc-bound (B. subtilis 168 strain) (UniProt Q45588); experiment: crystal structure; micro-batch at 20 °C, 0.1 M HEPES pH 7.5, 17% PEG3350, 3% isopropanol, 0.1 M CaCl2; zinc-binding form refined at 2.8 Å, oxidized zinc-free form at 2.6 Å; MAD phasing with Se-Met complex, then molecular replacement; both purified
T2 sequence: T1 sequence (chain, disulfide bond between C3 and C37)

[3] = molecular target: T1, cytoplasmic domain of Bacillus subtilis anti-sigma RsiW (residues 1-80), oxidized, zinc-free (B. subtilis 168 strain); experiment: as above

Measured: binding

B1: Bacillus subtilis SigW (residues 1-187) (natural protein, B. subtilis 168 strain, UniProt Q45585 1-187, looked up)
chain: MEMMIKKRIKQVKKGDQDAFADIVDIYKDKIYQLCYRMLGNVHEAEDIAQEAFIRAYVNIDSFDINRKFSTWLYRIATNLTIDRIRKKKPDYYLDAEVAGTEGLTMYSQIVADGVLPEDAVVSLELSNTIQQKILKLPDKYRTVIVLKYIDELSLIEIGEILNIPVGTVKTRIHRGREALRKQLRDL
notes: SigW, ECF (group IV) sigma factor of Bacillus subtilis 168, residues 1-187; domains sigmaW2 (residues 3-95) and sigmaW4 (residues 125-187) joined by a disordered loop (96-125); No tag on SigW itself (cloned in MCS2 of pET-DUET1); it is purified through the His-tagged RsiWcyto; A selenomethionine-labelled complex (E. coli B834 (DE3)) was used for phasing only; also called sigma factor SigW; ECF …
binds: all assays above

— PMC5358783, “Structural insights into the regulation of Bacillus subtilis SigW activity by anti-sigma RsiW” (PLoS ONE, 2017)
